Laboratory results from paper PMC4316790.
These are yes or no findings as the source states them, for the method shown. Some entries that bind do so weakly or less than the wild type.

T1: NlpI, full length, in pBT (bacterial two-hybrid bait) (E. coli) (UniProt P0AFB1)
T1 sequence: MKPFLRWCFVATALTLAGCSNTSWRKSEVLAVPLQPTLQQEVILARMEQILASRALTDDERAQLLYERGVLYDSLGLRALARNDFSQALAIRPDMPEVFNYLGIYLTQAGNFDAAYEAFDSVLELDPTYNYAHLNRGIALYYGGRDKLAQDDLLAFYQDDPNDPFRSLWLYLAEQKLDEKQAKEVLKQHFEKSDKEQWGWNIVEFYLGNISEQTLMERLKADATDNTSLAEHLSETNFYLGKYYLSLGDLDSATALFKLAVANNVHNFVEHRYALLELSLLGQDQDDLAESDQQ


Key:
[1] = biological target: NlpI-M (mature NlpI without signal peptide), C-terminal His-tagged, from pQE80-nlpI-M (E. coli) (UniProt P0AFB1); assay: co-purification with Western blot; NlpI-M expressed and purified in ΔibpA; co-eluted protein found by Western blot
[2] = biological target: T1, NlpI, full length, in pBT (bacterial two-hybrid bait) (E. coli); assay: two-hybrid; BacterioMatch II bacterial two-hybrid; NlpI or NlpI-M in pBT, IbpB in pTRG; growth on dual selective screening medium (5 mM 3-AT, streptomycin)
[3] = biological target: NlpI-M (nlpI without N-terminal signal sequence) in pBT (bacterial two-hybrid bait) (E. coli) (UniProt P0AFB1); assay: as above

Row | Binder | binding [1] | binding [2] | binding [3]
1 | Heat shock protein IbpB (protein, UniProt P0C058 1-142) MRNFDLSPLMRQWIGFDKLANALQNAGESQSFPPYNIEKSDDNHYRITLALAGFRQEDLEIQLEGTRLSVKGTPEQPKEEKKWLHQGLMNQPFSLSFTLAENMEVSGATFVNGLLHIDLIRNEPEPIAAQRIAISERPALNS | binds | – | –
2 | IbpB in pTRG (bacterial two-hybrid target) (protein, UniProt P0C058 1-142) MRNFDLSPLMRQWIGFDKLANALQNAGESQSFPPYNIEKSDDNHYRITLALAGFRQEDLEIQLEGTRLSVKGTPEQPKEEKKWLHQGLMNQPFSLSFTLAENMEVSGATFVNGLLHIDLIRNEPEPIAAQRIAISERPALNS | – | binds | binds
